This is an account of results in ChEMBL document CHEMBL1138053, “Design, synthesis, and structure-activity relationships of thieno[2,3-b]pyridin-4-one derivatives as a novel class of potent, orally active, non-peptide luteinizing hormone-releasing hormone receptor antagonists” (J Med Chem, 2006).

What is called logD is the decadic logarithm of the distribution of all forms, ionised or not, between an organic phase and buffer at a given pH. A higher logD goes with a more lipophilic compound.

Structures are written as SMILES.

The data set can be described thus: Distribution coefficient, log D of the compound. The following applies: octanol/water.

The molecule `CC(C)C(=O)Nc1ccc(-c2sc3c(c2CN(C)Cc2ccccc2)c(=O)c(C(=O)c2ccccc2)cn3Cc2c(F)cccc2F)cc1` showed a logD of 7.29.
